Assay: Adduct formation with beta mercaptoethanol followed spectrophotometrically
Conditions: 100 mM phosphate buffer pH 7.4; PARANA 30 μM/BME 30 μM; IBUNA 50 μM/BME 250 μM; FluFENA 12.5 μM/BME 125 μM; BANA 10 μM/BME 30 μM; PheNA 50 μM/BME 500 μM

Row | Compound | nitroalkene NSAID adduction with BME (absorbance change)
1 | O=C(O)c1ccc(/C=C/[N+](=O)[O-])cc1 [BANA, (E)-4-(2-nitrovinyl)benzoic acid] | absorbance increase
2 | O=C(O)c1cc(/C=C/[N+](=O)[O-])ccc1Nc1cccc(C(F)(F)F)c1 [FluFENA, (E)-5-(2-nitrovinyl)-2-((3-(trifluoromethyl)phenyl)amino)benzoic acid] | absorbance increase
3 | CC(C)Cc1ccc(C(C)C(=O)O)cc1/C=C/[N+](=O)[O-] (centres unmarked) [IBUNA, (E)-2-(4-isobutyl-3-(2-nitrovinyl)phenyl)propanoic acid] | absorbance increase
4 | CC(=O)Nc1ccc(O)c(/C=C/[N+](=O)[O-])c1 [PARANA, (E)-N-(4-hydroxy-3-(2-nitrovinyl)phenyl)acetamide] | absorbance increase
5 | O=[N+]([O-])/C=C/c1ccc(O)cc1 [PheNA, (E)-4-(2-nitrovinyl)phenol] | absorbance increase
